According to patent publication US9119816B2, “Method for prevention or treatment of diabetic angiogenesis impairment using C-peptide” (KANGWON NATIONAL UNIVERSITY UNIVERSITY-INDUSTRY COOPERATION …, priority 2012, dated 2015):
At least one structure is not confirmed: it was looked up by name or label, or the drawing left a doubt.

Columns and labels:
HUVECs [1] = assay: Inhibition of VEGF-induced tube formation by HUVECs; assay type: cell-based, human; conditions: 10 ng/ml VEGF, 24-30 h
Experimental: (§1) FIG. 4B is a graph in which tube formation is quantified by confocal microscopy and results are represented as mean±S.D. from three independent experiments after HUVECs were seeded onto a Matrigel layer and incubated for 24-30 h with 10 ng/ml VEGF in the presence of the indicated concentrations of L-NAME, PD98058, and wortmannin.
(§2) The formation of capillary-like networks by HUVECs on growth factor-reduced Matrigel (BD Biosciences, Franklin Lakes, N.J.) was achieved using a method known in the art. Briefly, 24-well culture plates were coated with Matrigel according to the manufacturer's instructions. HUVECs were seeded onto a layer of Matrigel at a density of 4×10^5 cells/well, and treated with VEGF or C-peptide at 37° C. for 24 to 30 h. The degree of tube formation was quantified by measuring the length of tubes from the images using the FV-300 software.
(§3) The roles of ERK1/2, PI3K/Akt, and NO in C-peptide-induced angiogenesis were examined using PD98059, wortmannin, and L-NG-nitroarginine methyl ester (L-NAME), respectively.

HUVECs [2] = assay: Inhibition of C-peptide-induced tube formation by HUVECs; assay type: cell-based, human; conditions: 0.5 nM C-peptide, 24-30 h
Experimental: as §1, with “4A” for “4B”, “0.5 nM C-peptide (C-pep)” for “10 ng/ml VEGF”, “wortmannin, and” for “wortmannin.”
as §2, §3

## COC[C@H]1OC(=O)c2coc3c2[C@@]1(C)C1=C(C3=O)[C@@H]2CCC(=O)[C@@]2(C)C[C@H]1OC(C)=O [wortmannin]
HUVECs [1]
  effect on VEGF-induced tube formation: prevented
HUVECs [2]
  inhibition of C-peptide-stimulated tube formation: dose-dependent inhibition
